Measurements published in PubChem BioAssay AID504848 (National Center for Advancing Translational Sciences (NCATS), 2011).
Screen size: about 2,300 compounds; about 1,400 (61%) were called active. So high a share suggests a set chosen from earlier hits. Inconclusive means that the source gave no clear call. Such entries were picked first, then a sample of the others. Calls come from the whole dose curve; as a rule, active = well fitted inhibition curve with a large enough effect; inconclusive = small, poorly fitted or top-dose-only effect, or effect the other way; inactive = no such curve, though single readings can be large or run the other way. Potencies beside an inconclusive call are fits to weak or partial responses and may not hold up.

assay: Confirmation screen for delayed death inhibitors of the malarial parasite plastid, 96 hour incubation; note: nearly all actives have a fitted effect of over 60% in size; settings: P. falciparum luciferase growth in erythrocytes; series mostly up to 28.7 µM
Summary of the method: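 Erythrocytes infected with luciferase-expressing P. falciparum (2% hematocrit, 0.1% parasitemia final) in RPMI 1640 with 0.5% Albumax, exposed to compounds 96 h at 37 C, 5% CO2. Growth inhibition read as decreased luciferase luminescence.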
Potency is the fitted concentration of half-maximal effect.

Row | Compound | Potency
1 | CC(C)Cc1ccc(CN2CCCC(NC(=O)CCn3cnnn3)C2)cc1 (centres undefined) | inconclusive: 4.47 µM [inhibitor, partial curve, poor fit]
2 | COc1cc(/C=C2\COC/C(=C\c3cc(OC)c(OC)c(OC)c3)C2=O)cc(OC)c1OC | active: 2.51 µM
3 | Cc1ccc(-c2csc3ncn(CC#N)c(=O)c23)cc1C | inconclusive: 15.8 µM [inhibitor, partial curve]
4 | CCc1ccc(CCC(=O)Nc2ccccc2C(=O)O)o1 | inconclusive: 0.224 µM [activator, full curve, poor fit]
5 | Cc1ccc(-c2csc3nc[nH]c(=O)c23)cc1 | inactive
6 | COc1ccc(Cl)cc1NC(=O)C(=O)NCc1ccncc1 | inactive
7 | O=C(c1ccccc1Br)N1CCN(c2ccccn2)CC1 | inactive
8 | COc1ccc(OC)c(C(=O)NC2CC(C)(C)Cc3c2cnn3-c2ccccc2)c1 (centres undefined) | active: 11.2 µM
9 | O=C(CCl)NCc1c(Cl)cccc1-n1cccc1 | inconclusive: 3.55 µM [inhibitor, partial curve, poor fit]
10 | C=C1c2c(Cl)ccc(O)c2C(O)=C2C(=O)[C@]3(O)C(O)=C(C(N)=O)C(=O)[C@@H](N(C)C)[C@@H]3[C@@H](O)C12 (some centres undefined) | active: 2 µM
11 | COc1ccc(S(=O)(=O)N2CCCCCC2)cc1C(=O)N(C)CC(=O)Nc1cc(C)ccc1C | inconclusive: 10 µM [inhibitor, partial curve]
12 | COc1ccc2c(CC(=O)OCC(=O)Nc3cccc(S(N)(=O)=O)c3)coc2c1 | inactive
13 | CCOc1c(Cl)cc(C(=O)Nc2ccccc2C(=O)O)cc1Cl | inconclusive: 14.1 µM [inhibitor, single point]
14 | Cc1cc2nsnc2c(S(=O)(=O)N2CCN(C)CC2)c1C | inactive
15 | O=C1c2ccccc2-n2c1nc1ccccc1c2=O | active: 0.501 µM
16 | CC(C)CC1c2[nH]c3ccccc3c2CCN1C(=O)c1cnccn1 (centres undefined) | inconclusive: 15.8 µM [inhibitor, single point]
17 | Cc1cc(C(=O)NC2CCCc3c2cnn3-c2cccc(C)c2C)no1 (centres undefined) | inconclusive: 12.6 µM [inhibitor, single point]
18 | O=c1c2ccccc2nnn1CSc1nnc(-c2cccs2)n1Cc1ccccc1 | inconclusive: 0.891 µM [inhibitor, full curve, poor fit]
19 | CCCn1nc([N+](=O)[O-])c(C(C#N)c2nc3ccccc3o2)c(Cl)c1=O (centres undefined) | inconclusive: 5.01 µM [inhibitor, partial curve]
20 | COc1cc2c(O)c3c(c(-c4ccc5c(c4)OCO5)c2cc1OC)C(=O)OC3 | active: 6.31 µM
21 | CCCn1c(N)c(C(=O)CSc2nc3ccccc3s2)c(=O)[nH]c1=O | inconclusive: 12.6 µM [inhibitor, partial curve]
22 | Cc1cc(Cl)c(OCCn2ccnc2)c(Br)c1 | inconclusive: 15.8 µM [inhibitor, partial curve, poor fit]
23 | CCN(CC)C(=O)C1CCCN(C(=O)c2cc(COc3ccc4ncccc4c3)on2)C1 (centres undefined) | active: 11.2 µM

Row | Compound | Potency
24 | Cc1cccc(CN2CCC(C(=O)Nc3ccc(-n4nc(C)cc4C)cc3)CC2)n1 | inconclusive: 10 µM [inhibitor, partial curve, poor fit]
25 | COC(=O)C1C(=O)C(C(=O)/C=C/c2ccccc2)C(=O)CC1(C)C (centres undefined) | inconclusive: 15.8 µM [inhibitor, partial curve, poor fit]
26 | O=[N+]([O-])c1ccc(N2CCN(c3ccccc3)CC2)nc1 | inconclusive: 12.6 µM [activator, partial curve, poor fit]
27 | C=CCn1c(C)cc(C2=NNC(=NCc3ccccc3)SC2)c1C | active: 14.1 µM
28 | O=C(COCc1cc(-c2ccc3c(c2)OCO3)on1)N1CCCCC1 | inconclusive: 2.51 µM [activator, full curve, poor fit]
29 | O=c1c(Cl)c(Cl)cnn1Cc1nnc(-c2ccccc2Br)o1 | inconclusive: 10 µM [inhibitor, partial curve]
30 | C/C=C(\C)CN1CCc2cc(OC)c(OC)cc2C1 | inconclusive: 4.47 µM [inhibitor, single point]
31 | CC(C)NC(=O)NC(=O)COC(=O)c1ccccc1Oc1ccccc1 | inactive
32 | COc1ccccc1OCC(=O)Nc1cc(Cl)ccc1Oc1ccccc1 | inactive
33 | COc1ccc(-n2ncc3c2CC(C)(C)CC3NC(=O)CCN2CCCCC2=O)cc1 (centres undefined) | inconclusive: 17.8 µM [inhibitor, partial curve, poor fit]
34 | O=C(N[C@@H](Cc1ccccc1)C(=O)CCl)OCc1ccccc1 | inactive
35 | Cc1ccc(C(=O)NCCn2ccc3ccccc32)cc1[N+](=O)[O-] | inactive
36 | Cc1ccccc1-c1nnc(NC(=O)c2ccc(N3C(=O)CCC3=O)cc2)s1 | inconclusive: 0.631 µM [inhibitor, full curve, poor fit]
37 | Cc1cnc(NC(=O)COc2cccc3c2OC(C)(C)C3)s1 | inconclusive: 5.01 µM [inhibitor, partial curve, poor fit]
38 | Cc1cccc(C(=O)NNC(=S)NC(=O)c2cccs2)c1 | inconclusive: 14.1 µM [inhibitor, single point]
39 | Cc1ccc(-n2nnnc2SCC(=O)Nc2ccccc2-c2ccccc2)cc1C | inactive
40 | COc1ccc(/C=N/Nc2ccccc2C(=O)O)cc1 | inconclusive: 1.26 µM [activator, full curve, poor fit]
41 | C=CCc1cccc(CNc2ccc(Br)cc2)c1O | inconclusive: 3.98 µM [inhibitor, full curve, poor fit]
42 | CC[C@@H]1CC=C[C@H]2[C@H]1C(=O)N(Cc1ccccc1)[C@H]2c1ccoc1 | active: 7.08 µM
43 | CC(C)OCCCNC(=O)COc1ccc2oc3c(c2c1)CCCC3 | inconclusive: 14.1 µM [inhibitor, single point]
44 | Cn1cc([N+](=O)[O-])c(C(=O)Nc2cnn(Cc3ccc(F)cc3)c2)n1 | inconclusive: 15.8 µM [activator, single point]
45 | COc1ccc(/C=C2\CCC/C(=C\C=N\N(C)C)C2=O)cc1 | active: 12.6 µM
46 | O=C(c1ccc2c(c1)N(Cc1cccc(Cl)c1)C(=O)c1ccccc1S2(=O)=O)N1CCN(c2ccccn2)CC1 | active: 2.82 µM

Row | Compound | Potency
47 | COC(=O)c1cccc(C(=O)N2CCCC(C(=O)c3ccccc3OC)C2)c1 (centres undefined) | inconclusive: 12.6 µM [inhibitor, partial curve]
48 | O=C(CCN1C(=O)c2ccccc2C1=O)C1=NN[C@@H]2C(=O)N(c3ccc(F)cc3)C(=O)[C@H]12 | inactive
49 | COc1ccc(CNC(=O)c2cc(S(=O)(=O)N3CCOCC3)cn2C)cc1 | inconclusive: 0.112 µM [activator, full curve, poor fit]
50 | Cn1cc([N+](=O)[O-])c(C(=O)Nc2ccn(Cc3c(F)c(F)cc(F)c3F)n2)n1 | inconclusive: 0.0398 µM [activator, full curve, poor fit]
51 | O=C(Cn1cnc2c(nnn2Cc2ccc(F)cc2)c1=O)NCc1ccc2c(c1)OCO2 | inconclusive: 10 µM [inhibitor, partial curve]
52 | COc1ccc(C2=Nn3c(nnc3-c3ccccc3F)SC2)cc1OC1CCCC1 | inconclusive: 15.8 µM [inhibitor, single point]
53 | CSc1c[n+]2c(n1C)CCC2 | inconclusive: 14.1 µM [inhibitor, single point]
54 | Cc1nc(-c2ccccn2)sc1C(=O)Nc1ccc(Cl)c(Cl)c1 | inactive
55 | Cc1ccccc1OCC(=O)Nc1nnc(-c2ccncc2)s1 | inconclusive: 11.2 µM [inhibitor, partial curve]
56 | Cc1ccc(-c2cc(C(=O)N/N=C/c3ccoc3)c3ccccc3n2)cc1 | inconclusive: 8.91 µM [inhibitor, partial curve, poor fit]
57 | C=CCn1c(SCC(=O)NC2CCCC2)nc2sc(C)cc2c1=O | inconclusive: 14.1 µM [inhibitor, partial curve, poor fit]
58 | COc1ccc(/C=N/NC(=O)c2cc(-c3ccccc3)nc3ccccc23)cc1O | inactive
59 | Cc1onc(-c2ccccc2Cl)c1C(=O)N1CCC(Cc2ccccc2)CC1 | inconclusive: 12.6 µM [inhibitor, single point]
60 | O=C(N/N=C(\CC(=O)c1cccs1)C(F)(F)F)c1ccncc1 | inactive
61 | COc1ccc(N2CCN(C(=O)CSc3nc4cc(OC)c(OC)cc4cc3C#N)CC2)cc1 | inconclusive: 3.98 µM [inhibitor, full curve]
62 | CCOC(=O)c1c(NC(=O)c2c(-c3ccccc3)noc2C)sc(C)c1-c1ccccc1 | active: 5.01 µM
63 | O=C(CCC1N=C2c3ccccc3N=C(SCC(=O)NCc3ccco3)N2C1=O)NCc1ccco1 (centres undefined) | inconclusive: 3.55 µM [inhibitor, partial curve, poor fit]
64 | O=C(CNC(=O)c1cccc(S(=O)(=O)N2CCc3ccccc32)c1)Nc1ccc(F)c(F)c1F | active: 11.2 µM
65 | Cc1ccc(-c2nnn(CC(=O)Nc3ccc4nn(-c5ccccc5)nc4c3)n2)o1 | inconclusive: 15.8 µM [inhibitor, single point]
66 | COCCn1c(SCC(=O)Nc2ccccc2F)nc2c(c1=O)SCC2 | inactive
67 | CCOC(=O)c1sc(NC(=O)CC(C)c2ccccc2)nc1C (centres undefined) | inconclusive: 15.8 µM [inhibitor, single point]
68 | CC(=O)N[C@@H](Cc1c[nH]c2ccccc12)C(=O)NC1CCCc2ccccc21 (some centres undefined) | inconclusive: 15.8 µM [inhibitor, partial curve]
69 | O=C(NC1=NCCS1)c1cc(-c2ccc(-c3ccccc3)cc2)nc2ccccc12 | inconclusive: 2.51 µM [activator, partial curve]

Fetched by structure from the entries so far (3):
Row | Compound | Potency
68 | CC(=O)N[C@@H](Cc1c[nH]c2ccccc12)C(=O)NC1CCCc2ccccc21 (some centres undefined) | inconclusive: 15.8 µM [inhibitor, partial curve]
59 | Cc1onc(-c2ccccc2Cl)c1C(=O)N1CCC(Cc2ccccc2)CC1 | inconclusive: 12.6 µM [inhibitor, single point]
51 | O=C(Cn1cnc2c(nnn2Cc2ccc(F)cc2)c1=O)NCc1ccc2c(c1)OCO2 | inconclusive: 10 µM [inhibitor, partial curve]
